Assay results: patent US9708602B2, “Screening for inhibitors of ribosome biogenesis” (priority 2013, dated 2017)
“Also recorded” adds a separate entry of the source. For at least one compound, name, drawing or mass did not settle the structure.

Tests used:
Type in all cases: cell-based, E. coli
[1] = test system: ribosomal subunits of MCrg* cells; test: Sucrose density gradient ribosome profiles (A254 and fluorescence of fractions) of antibiotic treated MCrg* cells
Procedure: Whole-cell analyses (A-B): MCrg* cells were cultured in at 25° C. in M9 medium for 7 hours in the absence and presence of antibiotics, as indicated. Samples were taken every hour. (A) OD600 values were determined and (B) mAzami and mCherry fluorescence emission were detected and ratios were calculated. Fluorescence ratios of MCrg* were normalized to 1. Exemplary growth curves are given and fluorescence ratios are means from three independent experiments; error bars show s.d. Analyses of isolated ribosomal particles (C-H and J-M): Sucrose density gradient (10-25%) centrifugation profiles from (C) control cells with no antibiotic (none), (D) chloramphenicol (Cam), (E) erythromycin (Ery), (F) kanamycin (Kan) and (G) neomycin (Neo) treated cells. Sucrose gradient fractions from (C) to (G) were analyzed for fluorescence by a micro plate reader. A254 profiles and fluorescence bar charts were superimposed for (H) control cells with no antibiotic (none), (J) chloramphenicol (Cam), (K) erythromycin (Ery), (L) kanamycin (kan) and (M) neomycin (Neo) treated cells. […] Left shifted peaks of the large subunit are indicated by horizontal arrows, abnormal portions of the small subunit by vertical arrows; Bars with black lines: normalized mCherry fluorescence; Black bars: normalized mAzami fluorescence. Fluorescence was normalized to the first polysome peak (“disome”) where subunits are present in 1:1 ratio.
Using MCrg*, it was investigated, whether treatment of cells with ribosome targeting antibiotics results in assembly defects of both ribosomal subunits. […] Treatment with chloramphenicol, by contrast, led to an increased fluorescence ratio, with a maximum of 1.20 after 7 hours. […]
When focusing on the overlay diagrams (combining A254 and fluorescence read outs) (FIG. 15H, J-M), ribosome profiles from non treated cells are basically congruent (FIG. 15H). […] These peaks of green fluorescence presumably represent defective assembly intermediates of the large subunit that are caused by all the antibiotics used in this study, but to different extend. […]

MCrg* cells = test: Probing MCrg* with ribosome-targeting antibiotics: whole-cell growth and mAzami/mCherry fluorescence ratio; details: 7 μg/ml, seven hours time course
Procedure: Whole-cell analyses (A-B): MCrg* cells were cultured in at 25° C. in M9 medium for 7 hours in the absence and presence of antibiotics, as indicated. Samples were taken every hour. (A) OD600 values were determined and (B) mAzami and mCherry fluorescence emission were detected and ratios were calculated. Fluorescence ratios of MCrg* were normalized to 1. Exemplary growth curves are given and fluorescence ratios are means from three independent experiments; error bars show s.d. […] Sucrose gradient fractions from (C) to (G) were analyzed for fluorescence by a micro plate reader. A254 profiles and fluorescence bar charts were superimposed for (H) control cells with no antibiotic (none), (J) chloramphenicol (Cam), (K) erythromycin (Ery), (L) kanamycin (kan) and (M) neomycin (Neo) treated cells. […] Left shifted peaks of the large subunit are indicated by horizontal arrows, abnormal portions of the small subunit by vertical arrows; Bars with black lines: normalized mCherry fluorescence; Black bars: normalized mAzami fluorescence. Fluorescence was normalized to the first polysome peak (“disome”) where subunits are present in 1:1 ratio. […]

MCyc cells = test: FRET analysis by acceptor photo-bleaching in reporter cells in absence/presence of Rifampicin; details: MCyc cells incubated in presence of Rifampicin for 45 min at 37° C.; untreated sample 1.3% FRET
[2] = cells cultured with antibiotic in LB medium at 25° C. for 3 hours, 10-25% sucrose gradient

Row | Structure (SMILES) | 30S peak region in A254 ribosome profile [1, 2] | 50S peak in A254 ribosome profile [1, 2] | green (mAzami, large subunit) fluorescence in overlay of A254 and fluorescence profiles ([1]; sucrose gradient fractions, micro plate reader) | change in the fluorescence ratio (mAzami/mCherry) (MCrg* cells) | FRET (FRET efficiency after acceptor photo-bleaching) (MCyc cells)
1 | NC[C@H]1O[C@H](O[C@H]2[C@H](O)[C@@H](O[C@H]3O[C@H](CO)[C@@H](O)[C@H](N)[C@H]3O)[C@H](N)C[C@@H]2N)[C@H](O)[C@@H](O)[C@@H]1O [kanamycin] | additional peak left-lateral of the 30S peak | no apparent influence on the 50S peak | green fluorescent peaks of weaker intensity but at similar positions within the profile | did not show a significant change in the fluorescence ratio | 
2 | CO[C@H]1/C=C/O[C@@]2(C)Oc3c(C)c(O)c4c(O)c(c(/C=N/N5CCN(C)CC5)c(O)c4c3C2=O)NC(=O)/C(C)=C\C=C\[C@H](C)[C@H](O)[C@@H](C)[C@@H](O)[C@@H](C)[C@H](OC(C)=O)[C@@H]1C [Rifampicin] |  |  |  |  | did not exhibit FRET; also recorded: reduced FRET
